PubChem BioAssay AID1259260 – Sanger Institute | 2017

- Purpose: 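Essential and drug-synergistic kinases in a colorectal cancer cell line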 (primary screen)
- Cell system: human NCI-H716 colorectal cancer cells
- Reagent: siRNA pool against human genes
- Challenge: anchor drugs BYL719 (alpelisib) 1 µM, cetuximab 5 µg/ml or trametinib 10 nM, each at a dose chosen to harm viability only mildly; DMSO vehicle for the knock-down-alone arm
- Measurement: 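Mean viability over replicates against non-targeting siRNA, robust z-score without drug, and per-drug synergy comparing combined with single treatments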
- Scale: viability robust z-score, siRNA alone: higher = more surviving cells; below -3 called essential; viability vs control, no drug: higher = more surviving cells; synergy score with BYL719: higher = stronger synergy (synthetic lethality) with drug
- Active means: 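Essential when the robust z-score for knock-down alone falls below -3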
- Calls: active = essential (knock-down alone lowers viability); inactive = no essential effect
In all, the deposit lists 794 reagents; below is an unselected part. 13 of them (1.6%) were called active. 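Calls reflect only knock-down without drug; synergy above 0.15 was grouped apart and does not change the call.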 Entries without a mark were called inactive. Viability is capped at 1. Not all columns of the deposit are shown. The record does not give: the amount of reagent, the time to read-out.

| gene | PubChem SID | viability robust z-score, siRNA alone | viability vs control, no drug (fraction of control) | synergy score with BYL719 |
| --- | --- | --- | --- | --- |
| BCKDK (branched chain keto acid dehydrogenase kinase) | SID135620909 | 0.602 | 1 | -0.283 |
| PRKAA2 (protein kinase AMP-activated catalytic subunit alpha 2) | SID152151654 | 0.602 | 1 | -0.283 |
| TRPM7 | SID152149681 | 0.602 | 1 | -0.0321 |
| MAGI2 | SID135622325 | 0.602 | 1 | -0.0177 |
| MAP4K5 (mitogen-activated protein kinase kinase kinase kinase 5) | SID56478702 | 0.602 | 1 | -0.283 |
| PFKFB3 (6-phosphofructo-2-kinase/fructose-2,6-biphosphatase 3) | SID135621247 | 0.602 | 1 | -0.269 |
| MAP3K10 (mitogen-activated protein kinase kinase kinase 10) | SID56478692 | 0.602 | 1 | -0.26 |
| NEK7 (NIMA related kinase 7) | SID56478729 | 0.602 | 1 | -0.219 |
| IGF1R (insulin like growth factor 1 receptor) | SID152153009 | -1.81 | 0.75 | -0.0883 |
| FN3K (fructosamine 3 kinase) | SID56479098 | 0.602 | 1 | -0.0384 |
| KIT (KIT proto-oncogene, receptor tyrosine kinase) | SID152151885 | 0.602 | 1 | -0.103 |
| WNK1 (WNK lysine deficient protein kinase 1) | SID152148140 | 0.602 | 1 | -0.0576 |
| MAP3K9 (mitogen-activated protein kinase kinase kinase 9) | SID152152652 | 0.602 | 1 | -0.194 |
| EPHA7 (EPH receptor A7) | SID152149990 | 0.602 | 1 | -0.195 |
| EPHA5 (EPH receptor A5) | SID152153658 | 0.602 | 1 | -0.186 |
| CDK18 (cyclin dependent kinase 18) | SID56478887 | -2.02 | 0.727 | -0.23 |
| CAMK2N1 (calcium/calmodulin dependent protein kinase II inhibitor 1) | SID152156102 | 0.312 | 0.97 | -0.15 |
| GAK (cyclin G associated kinase) | SID152148846 | 0.602 | 1 | -0.0399 |
| CHD4 (chromodomain helicase DNA binding protein 4) | SID152156048 | -0.428 | 0.893 | 0.00863 |
| TAOK1 (TAO kinase 1) | SID152151735 | 0.0305 | 0.941 | -0.146 |
| TBX3 (T-box transcription factor 3) | SID134316486 | 0.602 | 1 | -0.234 |
| CLSPN (claspin) | SID134310856 | -0.386 | 0.897 | 0.0307 |
| AURKB (aurora kinase B) | SID152151121 | -1.51 | 0.781 | -0.125 |
| TWF1 (twinfilin actin binding protein 1) | SID56478546 | -0.201 | 0.917 | -0.343 |
| EEF2K (eukaryotic elongation factor 2 kinase) | SID152154873 | 0.602 | 1 | -0.0526 |
| JAK2 (Janus kinase 2) | SID56478524 | 0.602 | 1 | -0.283 |
| MAPK13 (mitogen-activated protein kinase 13) | SID56478704 | -0.484 | 0.887 | -0.0789 |
| CSNK1G3 (casein kinase 1 gamma 3) | SID152152817 | 0.602 | 1 | -0.283 |
| EXOSC10 (exosome component 10) | SID152152402 | -2.76 | 0.651 | -0.0783 |
| BCR (BCR activator of RhoGEF and GTPase) | SID152154242 | -0.505 | 0.885 | -0.219 |
| PAK6 (p21 (RAC1) activated kinase 6) | SID56478794 | 0.602 | 1 | -0.123 |
| TPK1 (thiamin pyrophosphokinase 1) | SID135621256 | -2.06 | 0.723 | 0.0278 |
| CTCF (CCCTC-binding factor) | SID135623925 | 0.602 | 1 | -0.239 |
| MAP3K12 (mitogen-activated protein kinase kinase kinase 12) | SID56478643 | 0.602 | 1 | -0.0227 |
| ACVR1 (activin A receptor type 1) | SID152154539 | -0.687 | 0.866 | 0.0367 |
| CHEK1 (checkpoint kinase 1) | SID152148697 | -0.656 | 0.869 | -0.0821 |
| GATA3 (GATA binding protein 3) | SID134310077 | -0.199 | 0.917 | -0.131 |
| ELF3 (E74 like ETS transcription factor 3) | SID135623079 | -5.84 (active) | 0.33 | -0.0721 |
| KDR (kinase insert domain receptor) | SID56478526 | 0.602 | 1 | -0.0511 |
| AURKC (aurora kinase C) | SID152150186 | -0.543 | 0.881 | -0.0757 |
| NUP107 (nucleoporin 107) | SID152154550 | 0.602 | 1 | -0.0673 |
| NEK10 (NIMA related kinase 10) | SID56478763 | 0.602 | 1 | -0.252 |
| PINK1 (PTEN induced kinase 1) | SID152149500 | 0.602 | 1 | -0.0868 |
| RUNX1 (RUNX family transcription factor 1) | SID135620759 | -4.12 (active) | 0.509 | -0.235 |
| PFKP (phosphofructokinase, platelet) | SID56479236 | -2.29 | 0.699 | -0.16 |
| ALPK2 (alpha kinase 2) | SID152151764 | 0.602 | 1 | -0.116 |
| UCK1 (uridine-cytidine kinase 1) | SID56478768 | 0.602 | 1 | -0.22 |
| CSNK2B (casein kinase 2 beta) | SID56479183 | 0.602 | 1 | -0.283 |
| CLK4 (CDC like kinase 4) | SID56478876 | -1.38 | 0.794 | -0.0194 |
| PCK1 (phosphoenolpyruvate carboxykinase 1) | SID135621257 | 0.2 | 0.958 | -0.0165 |

Only “viability robust z-score, siRNA alone”, for 6 of the entries above:
MAP4K5 (mitogen-activated protein kinase kinase kinase kinase 5) [SID56478702]	0.602
PFKFB3 (6-phosphofructo-2-kinase/fructose-2,6-biphosphatase 3) [SID135621247]	0.602
MAP3K10 (mitogen-activated protein kinase kinase kinase 10) [SID56478692]	0.602
NEK7 (NIMA related kinase 7) [SID56478729]	0.602
IGF1R (insulin like growth factor 1 receptor) [SID152153009]	-1.81
FN3K (fructosamine 3 kinase) [SID56479098]	0.602
